At least one read-out could not be matched to a standard name with certainty.
Tested on: protein tyrosine phosphatase-B (PTP-B)
Assay: Dephosphorylation of phosphorylated optical probes by PTP-B
Assay type: biochemical
Details: phosphorylated probe
Procedure: Optical probes were first phosphorylated to completion as described above, and samples of phosphorylated optical probe, at a final concentration of 500 nM, were incubated with various concentrations of protein tyrosine phosphatase-B (PTP-B) agarose (Upstate Biotechnology) for 20 minutes at 30 C in 0.1×PBS. At the required time interval, PTP-B-agarose was removed by a brief microfuige spin prior to transfer to 96-well Cytofluor plates for fluorescence measurements, after addition of chymotrypsin (100 nM), as described in Example 1.
In this experiment, the relative rates of dephosphorylation of the phosphorylated Src-2-specific substrate (SEQ. ID. NO: 29) and an abl-specific (SEQ. I.D. No. 4) substrate optical probes by the protein tyrosine phosphatase PTP-B were compared.

“GEEEIYGVIEK [Src-2, fluorescently labeled optical probe for Src kinase; phosphorylated form is the PTP-B substrate]” was tested, and the Kcat/Km was ~10^8 M^−1sec^−1.

Source: patent publication US6410255B1, “Optical probes and assays” (priority 1999, dated 2002)
